Results from US20250340651A1.
No constants are given. Whether binding was seen depends on the method and setting. Some entries that bind do so weakly or less than the wild type.

Key:
[1] = molecular target: T1, Recombinant MICA*01 protein (Homo sapiens (Human)) (UniProt Q29983); assay: ELISA on coated recombinant antigen (1 µg/ml), goat anti-mouse IgG-HRP, OD 450 nm
T1 sequence: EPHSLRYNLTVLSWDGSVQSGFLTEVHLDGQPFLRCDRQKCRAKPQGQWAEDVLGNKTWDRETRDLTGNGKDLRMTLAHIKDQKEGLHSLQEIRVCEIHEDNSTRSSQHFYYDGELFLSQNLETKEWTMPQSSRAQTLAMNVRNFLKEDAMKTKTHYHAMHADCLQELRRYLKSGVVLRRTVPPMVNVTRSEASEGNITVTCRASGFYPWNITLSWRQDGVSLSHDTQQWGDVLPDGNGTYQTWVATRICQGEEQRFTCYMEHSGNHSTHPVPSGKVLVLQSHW

Recombinant MICB protein [2] = molecular target: T2, Recombinant MICB protein (UniProt Q29980); assay: as above
T2 sequence (looked up): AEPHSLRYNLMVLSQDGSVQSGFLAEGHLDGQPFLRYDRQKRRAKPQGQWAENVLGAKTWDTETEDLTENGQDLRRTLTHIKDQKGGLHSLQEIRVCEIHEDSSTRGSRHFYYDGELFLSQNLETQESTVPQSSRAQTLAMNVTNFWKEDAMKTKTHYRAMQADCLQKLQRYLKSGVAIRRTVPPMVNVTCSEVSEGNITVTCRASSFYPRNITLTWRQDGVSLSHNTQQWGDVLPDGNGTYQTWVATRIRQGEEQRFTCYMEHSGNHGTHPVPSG

[3] = molecular target: T1, Recombinant MICA*01 protein (Homo sapiens (Human)); assay: ELISA on plate-coated recombinant protein
Recombinant MICB protein [4] = molecular target: T2, Recombinant MICB protein; assay: ELISA on plate-coated recombinant protein

Measured: binding

B1: 3F9.E4 (antibody, V domains shown)
VH: EVQLQESGEGLVKPGGSLKLSCAASGFTFSNYAMSWVRQTPEKRLEWVAYISPGGDYIYYADTVKGRFTISRDNARNTLYLQMSSLKSEDTAMYYCTTDRRHYGSYAMDYWGQGISVTVSS
VL: DIVMTQAAPSVPVTPGESVSISCRSSKSLLHSNGNTYLYWFLQRPGQSPQLLIYRMSNLASGVPDRFSGSGSGTAFTLRISRVEAEDVGVYYCMQHLEYPFTFGSGTKLEIK
binds: all assays above

B2: 16F10.C12 (antibody, V domains shown)
VH: EVQLQESGPGLVAPSQSLSITCTVSGFSLTAFGVNWVRQPPGKGLEWLGMIWGDGNTDYNSTLRSRLSISKDNSKSQVFLKLNSLQTDDTARYFCARETYYGNYAGLGYWGQGTLVTVSA
VL: QIVLTQSPAIMSASIGERVTMTCTASSSVSSNYLHWYQQKPRSSPKLWIYTTSNLASGVPTRFSGSGSGTSYSLTISSMEAEDAATYYCHQFHRSPFTFGSGTKLEIK
binds: all assays above
